Reference: patent publication US9221826B2, “Pyrrolopyridazine JAK3 inhibitors and their use for the treatment of inflammatory and autoimmune diseases” (Bristol-Myers Squibb Company, priority 2011, dated 2015)
The structures given here were assigned with low confidence; some may be wrong.

The chains behind the UniProt entries cited, without tags or fusion partners.
UniProt P23458, whole entry: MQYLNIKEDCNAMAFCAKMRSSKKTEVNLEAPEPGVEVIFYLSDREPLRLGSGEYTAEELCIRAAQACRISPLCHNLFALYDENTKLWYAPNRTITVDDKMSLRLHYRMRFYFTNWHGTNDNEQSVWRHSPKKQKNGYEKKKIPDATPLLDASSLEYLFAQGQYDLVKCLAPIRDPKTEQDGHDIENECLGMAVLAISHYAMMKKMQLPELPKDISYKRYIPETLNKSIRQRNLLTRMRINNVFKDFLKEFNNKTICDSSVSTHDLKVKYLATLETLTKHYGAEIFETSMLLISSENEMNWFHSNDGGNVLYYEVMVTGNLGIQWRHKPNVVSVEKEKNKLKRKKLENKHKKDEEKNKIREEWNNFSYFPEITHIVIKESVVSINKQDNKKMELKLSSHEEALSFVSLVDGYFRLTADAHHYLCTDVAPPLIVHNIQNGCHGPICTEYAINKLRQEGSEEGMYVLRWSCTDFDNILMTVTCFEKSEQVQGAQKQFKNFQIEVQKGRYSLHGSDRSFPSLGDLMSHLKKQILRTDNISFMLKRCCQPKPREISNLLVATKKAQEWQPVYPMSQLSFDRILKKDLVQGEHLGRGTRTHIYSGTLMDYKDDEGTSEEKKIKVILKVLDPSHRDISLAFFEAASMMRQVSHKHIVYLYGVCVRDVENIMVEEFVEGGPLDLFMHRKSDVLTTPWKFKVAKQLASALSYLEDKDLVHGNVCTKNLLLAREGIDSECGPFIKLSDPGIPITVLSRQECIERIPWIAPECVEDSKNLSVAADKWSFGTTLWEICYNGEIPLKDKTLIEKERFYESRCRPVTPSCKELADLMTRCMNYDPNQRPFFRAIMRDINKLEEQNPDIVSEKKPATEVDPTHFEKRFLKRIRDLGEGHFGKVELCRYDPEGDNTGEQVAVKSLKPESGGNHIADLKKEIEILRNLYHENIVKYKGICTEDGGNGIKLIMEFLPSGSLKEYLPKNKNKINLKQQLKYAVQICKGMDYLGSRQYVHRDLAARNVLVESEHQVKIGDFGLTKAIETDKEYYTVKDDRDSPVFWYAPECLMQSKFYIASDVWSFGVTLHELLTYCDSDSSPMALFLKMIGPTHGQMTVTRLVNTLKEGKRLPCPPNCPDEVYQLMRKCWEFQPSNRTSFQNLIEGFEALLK
UniProt P52333, whole entry: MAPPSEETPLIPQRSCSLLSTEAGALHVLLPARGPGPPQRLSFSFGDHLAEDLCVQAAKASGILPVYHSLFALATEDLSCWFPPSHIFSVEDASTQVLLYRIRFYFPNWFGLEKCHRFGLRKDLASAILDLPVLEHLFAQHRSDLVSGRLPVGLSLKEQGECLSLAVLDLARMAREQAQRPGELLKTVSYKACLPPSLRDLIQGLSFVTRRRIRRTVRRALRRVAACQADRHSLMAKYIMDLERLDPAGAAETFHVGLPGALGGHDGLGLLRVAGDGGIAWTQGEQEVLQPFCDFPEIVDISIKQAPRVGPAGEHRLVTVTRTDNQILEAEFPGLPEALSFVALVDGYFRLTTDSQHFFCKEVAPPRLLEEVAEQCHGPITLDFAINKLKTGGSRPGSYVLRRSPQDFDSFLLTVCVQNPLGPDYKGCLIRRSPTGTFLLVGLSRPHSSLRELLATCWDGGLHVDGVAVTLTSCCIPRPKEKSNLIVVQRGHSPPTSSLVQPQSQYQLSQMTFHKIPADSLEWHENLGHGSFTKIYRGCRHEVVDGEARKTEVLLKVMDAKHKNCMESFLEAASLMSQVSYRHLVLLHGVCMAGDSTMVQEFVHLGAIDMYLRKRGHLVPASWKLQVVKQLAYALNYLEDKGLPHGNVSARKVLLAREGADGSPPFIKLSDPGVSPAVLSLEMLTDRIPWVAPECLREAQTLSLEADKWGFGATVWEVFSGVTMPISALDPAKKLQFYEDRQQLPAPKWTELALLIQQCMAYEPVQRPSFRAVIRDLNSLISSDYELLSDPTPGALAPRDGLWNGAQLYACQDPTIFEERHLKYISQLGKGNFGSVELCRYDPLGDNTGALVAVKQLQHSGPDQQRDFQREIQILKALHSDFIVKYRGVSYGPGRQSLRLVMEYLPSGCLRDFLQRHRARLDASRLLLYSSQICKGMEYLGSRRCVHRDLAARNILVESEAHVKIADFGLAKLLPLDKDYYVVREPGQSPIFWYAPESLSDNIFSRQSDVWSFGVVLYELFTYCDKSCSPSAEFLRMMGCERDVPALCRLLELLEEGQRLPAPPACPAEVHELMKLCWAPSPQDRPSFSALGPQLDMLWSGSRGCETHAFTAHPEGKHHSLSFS

Key:
GST-JAK1 enzyme = GST-JAK1 enzyme (Homo sapiens, UniProt P23458); assay: JAK1 Kinase Assay Protocol; conditions: read-out: LLE_JAK1 (IC50); Caliper LabChip assay, ATP 100 μM, fluoresceinated peptide
Description: The assay reactions were performed in U-bottom 384-well plates. The final assay volume was 30 μl prepared from 15 μl additions of enzyme and substrates (fluoresceinated peptide and ATP) and test compounds in assay buffer (20 mM HEPES pH 7.4, 10 mM MgCl2, 25 mM beta-glycerol phosphate, 0.015% Brij35 and 4 mM DTT). The reaction was initiated by the combination of GST-JAK1 enzyme with substrates and test compounds. The reactions were incubated at room temperature for 3 hours and terminated by adding 60 μl of 35 mM EDTA to each sample. Each reaction mixture was analyzed on the Caliper LabChip 3000 (Caliper, Hopkinton, Mass.) by electrophoretic separation of the fluorescent substrate and phosphorylated product. Inhibition data were calculated by comparison with no enzyme control reactions for 100% inhibition, and vehicle-only treated reactions for 0% inhibition. The final concentration of reagents in the assays was: ATP, 100 μM; fluoresceinated peptide, 1.5 μM; GST-JAK1, 12.5 nM; and DMSO, 1.6%. Dose response curves were generated to determine the concentration required inhibiting 50% of kinase activity (IC50). Compounds were dissolved at 10 mM in dimethylsulfoxide (DMSO) and evaluated at eleven concentrations. IC50 values were derived by non-linear regression analysis.

GST-JAK3 enzyme = GST-JAK3 enzyme (Homo sapiens, UniProt P52333); assay: JAK3 Kinase Assay Protocol (Caliper); conditions: read-out: LLE_JAK3_CAL (IC50); Caliper LabChip assay, ATP 8 μM, fluoresceinated peptide
JAK3 enzyme = JAK3 enzyme (Homo sapiens, UniProt P52333); assay: JAK3 Kinase Assay Protocol (Filter); conditions: read-out: LLE_JAK3_FB (IC50), 33P γ-ATP, 8 μM ATP, CSKtide substrate

## CC1(C)[C@H](Nc2c(C(N)=O)cnn3cc(-c4ccc(N5CCOCC5=O)cc4)cc23)CC[C@]1(C)N
GST-JAK1 enzyme
  IC50: 0.7 nM
GST-JAK3 enzyme
  IC50: 1.1 nM
JAK3 enzyme
  IC50: 1.2 nM
